The test concerns the target Cynomolgous monkey Dkk-1 (cynomolgous monkey). In words: SPR BIAcore 3000, CM5 chip.

Results are given in words; binding and its absence hold for the method and conditions named. Binding can be weak; no strength is given.

B1: huMabJC18, fully humanized anti-Dkk-1 monoclonal antibody (antibody, human IgG2, kappa, V domains shown)
VH: EVQLVESGGGLVQPGGSLRLSCAASGFTFSSYAISWVRQAPGKGLEWVASVSGTGLGFQTYYPDSVKGRFTISRDNAKNSLYLQMNSLRAEDTAVYYCATSLENYAFDYWGQGTTVTVSS
VL: EIVLTQSPATLSLSPGERATLSCRASESVDDFGISFINWYQQKPGQAPRLLIYAGSKQGSGIPARFSGSGSGTDFTLTISSLEPEDFAVYYCQQLKEVPPTFGGGTKVEIKR
With B1, the binding result is “binds”.

These data come from patent US20130071921A1.
